Some targets named below: SPIB (UniProt Q01892); ETV5 (UniProt P41161); ELF4 (UniProt Q99607).
What all share (test): DAPPL (digital affinity profiling via proximity ligation, sequencing)
Settings in all cases: 10 mM Tris-HCl pH 7.5, 50 mM NaCl, 1 mM DTT, 4% glycerol, room temperature, 30 min; GST-TFs on glutathione beads, 16-mer random dsDNA library, 0.1% …; high values mean tight binding; double strand, one strand shown; scale: fold enrichment (6-mer frequency, TF over GST control)

By UniProt entry, the sequences of proteins in these tests, tags left out. Where a name states a change or a piece, a line headed by the entry shows the natural chain unless it says otherwise.
UniProt Q01892: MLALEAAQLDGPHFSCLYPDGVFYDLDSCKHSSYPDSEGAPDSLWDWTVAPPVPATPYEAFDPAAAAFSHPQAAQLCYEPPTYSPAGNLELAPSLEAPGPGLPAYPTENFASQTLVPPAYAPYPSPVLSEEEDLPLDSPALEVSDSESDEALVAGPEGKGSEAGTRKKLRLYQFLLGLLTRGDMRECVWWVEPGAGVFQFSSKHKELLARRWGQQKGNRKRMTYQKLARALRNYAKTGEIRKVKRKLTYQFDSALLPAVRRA
UniProt P41161: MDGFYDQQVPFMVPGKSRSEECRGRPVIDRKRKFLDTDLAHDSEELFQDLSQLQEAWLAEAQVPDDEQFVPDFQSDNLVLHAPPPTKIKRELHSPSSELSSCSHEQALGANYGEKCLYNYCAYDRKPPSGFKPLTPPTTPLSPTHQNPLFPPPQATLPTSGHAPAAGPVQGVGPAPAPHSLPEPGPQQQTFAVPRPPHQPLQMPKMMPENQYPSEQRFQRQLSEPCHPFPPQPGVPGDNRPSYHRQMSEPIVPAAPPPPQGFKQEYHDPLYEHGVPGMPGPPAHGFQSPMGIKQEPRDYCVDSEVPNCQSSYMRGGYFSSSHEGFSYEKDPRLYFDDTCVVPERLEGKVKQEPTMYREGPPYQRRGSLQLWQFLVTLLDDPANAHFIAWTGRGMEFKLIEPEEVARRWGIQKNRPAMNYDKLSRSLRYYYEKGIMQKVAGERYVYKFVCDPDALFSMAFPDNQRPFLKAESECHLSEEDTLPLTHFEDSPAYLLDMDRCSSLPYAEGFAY
UniProt Q99607: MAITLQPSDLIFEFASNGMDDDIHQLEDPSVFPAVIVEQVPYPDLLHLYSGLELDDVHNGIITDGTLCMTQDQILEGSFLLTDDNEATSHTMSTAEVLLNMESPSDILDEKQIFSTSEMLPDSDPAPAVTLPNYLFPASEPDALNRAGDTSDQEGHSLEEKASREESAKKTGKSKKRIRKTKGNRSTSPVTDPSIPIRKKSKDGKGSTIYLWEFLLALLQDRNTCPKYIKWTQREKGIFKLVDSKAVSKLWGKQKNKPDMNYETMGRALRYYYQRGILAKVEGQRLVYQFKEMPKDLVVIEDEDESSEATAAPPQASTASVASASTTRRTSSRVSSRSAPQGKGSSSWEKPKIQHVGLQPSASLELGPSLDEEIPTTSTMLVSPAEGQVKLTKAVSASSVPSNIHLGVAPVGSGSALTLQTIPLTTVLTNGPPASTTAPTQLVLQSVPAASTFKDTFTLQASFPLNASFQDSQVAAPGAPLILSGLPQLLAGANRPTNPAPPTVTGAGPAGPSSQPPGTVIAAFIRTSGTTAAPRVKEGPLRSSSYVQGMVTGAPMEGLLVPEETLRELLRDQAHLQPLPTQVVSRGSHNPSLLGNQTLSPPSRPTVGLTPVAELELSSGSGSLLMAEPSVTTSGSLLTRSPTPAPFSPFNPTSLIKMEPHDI

The target of the next test is T1, FLI1 (UniProt Q01543).
T1 sequence: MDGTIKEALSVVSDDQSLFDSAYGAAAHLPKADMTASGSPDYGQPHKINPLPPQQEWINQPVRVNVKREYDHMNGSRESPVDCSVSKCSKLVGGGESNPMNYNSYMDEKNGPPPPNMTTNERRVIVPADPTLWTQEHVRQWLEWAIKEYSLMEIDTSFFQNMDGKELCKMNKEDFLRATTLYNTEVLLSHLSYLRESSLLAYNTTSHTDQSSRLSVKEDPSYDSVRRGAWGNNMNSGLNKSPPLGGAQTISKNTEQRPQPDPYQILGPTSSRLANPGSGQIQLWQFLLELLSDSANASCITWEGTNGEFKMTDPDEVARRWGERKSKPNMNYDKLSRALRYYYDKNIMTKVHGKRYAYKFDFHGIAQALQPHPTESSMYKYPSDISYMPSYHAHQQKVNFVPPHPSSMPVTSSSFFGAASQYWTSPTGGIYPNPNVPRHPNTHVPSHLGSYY

For a further test, the target named is T2, EHF (UniProt Q9NZC4).
T2 sequence: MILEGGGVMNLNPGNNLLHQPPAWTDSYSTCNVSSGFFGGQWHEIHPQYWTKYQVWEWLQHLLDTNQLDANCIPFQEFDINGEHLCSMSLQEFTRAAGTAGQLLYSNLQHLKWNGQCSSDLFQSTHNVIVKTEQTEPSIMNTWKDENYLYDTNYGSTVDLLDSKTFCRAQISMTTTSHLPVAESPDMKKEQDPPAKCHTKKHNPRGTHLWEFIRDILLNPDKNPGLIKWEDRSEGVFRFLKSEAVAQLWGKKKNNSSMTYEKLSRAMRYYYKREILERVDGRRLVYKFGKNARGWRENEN

In another test the target is T3, ETV2 (UniProt O00321).
T3 sequence: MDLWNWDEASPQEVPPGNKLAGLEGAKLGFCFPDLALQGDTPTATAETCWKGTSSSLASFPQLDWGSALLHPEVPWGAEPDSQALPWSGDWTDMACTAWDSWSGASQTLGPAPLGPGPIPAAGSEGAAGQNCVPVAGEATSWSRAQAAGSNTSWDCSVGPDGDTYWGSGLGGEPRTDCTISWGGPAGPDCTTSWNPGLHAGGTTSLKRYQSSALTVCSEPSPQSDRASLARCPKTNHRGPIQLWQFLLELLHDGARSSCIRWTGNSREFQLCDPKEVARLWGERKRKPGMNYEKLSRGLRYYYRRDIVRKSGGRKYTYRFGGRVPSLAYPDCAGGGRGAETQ

The next test addresses T4, ETV3L (UniProt Q6ZN32).
T4 sequence: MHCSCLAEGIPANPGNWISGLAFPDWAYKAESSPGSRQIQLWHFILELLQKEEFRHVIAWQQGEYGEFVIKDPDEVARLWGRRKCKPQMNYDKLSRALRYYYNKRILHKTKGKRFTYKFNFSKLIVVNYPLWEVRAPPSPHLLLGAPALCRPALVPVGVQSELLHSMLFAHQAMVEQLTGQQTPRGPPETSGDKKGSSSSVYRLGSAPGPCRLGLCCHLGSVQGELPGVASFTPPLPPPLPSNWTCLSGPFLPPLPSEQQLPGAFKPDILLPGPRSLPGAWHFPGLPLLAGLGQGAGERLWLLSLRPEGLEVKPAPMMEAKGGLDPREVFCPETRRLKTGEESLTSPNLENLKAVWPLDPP

The entries are a selection whose mix differs from that of the whole data set. At the low end of the ranking the order means little.

As to GGGGAT, the binding signal in the test with FLI1 turned out to be 0.658; in the test with EHF it was 0.647; with SPIB, 0.614; with ETV5, 0.668; with ELF4 it was 0.596; with ETV2, 0.535. The sequence further showed a binding signal with ETV3L of 0.65.

Consider AGAGAG, for which the binding signal in the test with FLI1 amounted to 0.539; in the test with EHF it was 0.544; with SPIB it was 0.487; with ETV5 it was 0.551; with ELF4, 0.514; with ETV2, 0.594. This sequence also returned a binding signal with ETV3L of 0.511.

For the sequence CGCTGA, the binding signal was 0.909 with FLI1; 0.889 with EHF; 1.01 in the test with SPIB; 0.876 with ETV5; 0.858 in the test with ELF4; 0.765 with ETV2. Besides, the binding signal with ETV3L stood at 0.841.

With AGGGGC, the binding signal was determined as 0.776 in the test with FLI1; 0.773 with EHF; 0.773 with SPIB; 0.84 with ETV5; 0.863 with ELF4; 0.762 in the test with ETV2. The binding signal with ETV3L turned out to be 0.822.

With GGCCGG, the binding signal in the test with FLI1 came out at 0.543; in the test with EHF, 0.585; in the test with SPIB, 0.554; in the test with ETV5, 0.614; with ELF4, 0.544; with ETV2, 0.533. The sequence also displayed a binding signal with ETV3L of 0.512.

Consider AGGTCA, for which the binding signal with FLI1 was 0.739; with EHF, 0.712; in the test with SPIB it was 0.765; in the test with ETV5, 0.746; with ELF4, 0.759; with ETV2 it was 0.73. Also, the binding signal in the test with ETV3L came out at 0.755.

On to GCACAG, for which the binding signal with FLI1 came out at 0.696; with EHF, 0.702; with SPIB, 0.782; with ETV5, 0.716; with ELF4 it was 0.741; in the test with ETV2 it was 0.746. The binding signal with ETV3L was 0.765.

Consider CGGAGA, for which the binding signal in the test with FLI1 was 0.204; with EHF it was 0.226; in the test with SPIB it was 0.21; in the test with ETV5, 0.226; with ELF4 it was 0.204; with ETV2 it was 0.192. In the test with ETV3L, this sequence yielded a binding signal of 0.202.

For the sequence CTGGGA, the binding signal worked out at 0.78 with FLI1; 0.772 with EHF; 0.836 with SPIB; 0.825 in the test with ETV5; 0.81 in the test with ELF4; 1.01 with ETV2. Also, the binding signal in the test with ETV3L amounted to 0.809.

On to GTCGGG, for which the binding signal was 0.216 in the test with FLI1; 0.208 in the test with EHF; 0.223 in the test with SPIB; 0.219 in the test with ETV5; 0.198 in the test with ELF4; 0.218 in the test with ETV2. The sequence further had a binding signal in the test with ETV3L of 0.213.

On to CAAGTG, for which the binding signal with FLI1 is 0.771; in the test with EHF it was 0.776; with SPIB, 0.791; with ETV5 it was 0.752; with ELF4 it was 0.756; with ETV2, 0.679. The binding signal with ETV3L was determined as 0.728.

Take AGTCAG: the binding signal is 0.499 with FLI1; 0.464 in the test with EHF; 0.456 with SPIB; 0.49 in the test with ETV5; 0.509 with ELF4; 0.49 in the test with ETV2. In the test with ETV3L, the binding signal stood at 0.454.

As for CCGTAG, the binding signal is 0.856 in the test with FLI1; 0.838 in the test with EHF; 0.818 with SPIB; 0.832 with ETV5; 0.873 with ELF4; 0.738 with ETV2. For the same sequence, in the test with ETV3L, the binding signal was 0.887.

On to CACGAG, for which the binding signal came to 0.924 in the test with FLI1; 0.926 with EHF; 0.802 in the test with SPIB; 0.839 with ETV5; 0.926 with ELF4; 0.795 with ETV2. In the test with ETV3L, this sequence yielded a binding signal of 0.891.

Consider GCGGGT, for which the binding signal in the test with FLI1 was determined as 0.566; with EHF, 0.633; in the test with SPIB, 0.631; with ETV5, 0.636; with ELF4, 0.629; with ETV2, 0.668. In addition, the binding signal in the test with ETV3L stood at 0.603.

On to GCAGAC, for which the binding signal in the test with FLI1 amounted to 0.697; in the test with EHF, 0.723; with SPIB, 0.723; with ETV5, 0.701; with ELF4, 0.695; with ETV2, 0.754. The same sequence had a binding signal with ETV3L of 0.644.

For the sequence GCCATG, the binding signal with FLI1 was 0.764; in the test with EHF it was 0.806; with SPIB it was 0.723; with ETV5, 0.698; in the test with ELF4 it was 0.854; in the test with ETV2 it was 0.7. Further, the binding signal with ETV3L came out at 0.793.

In the case of AGCCAT, the binding signal in the test with FLI1 was 0.783; with EHF, 0.862; with SPIB, 0.862; with ETV5, 0.802; with ELF4, 0.952; in the test with ETV2, 1.02. In the test with ETV3L, this sequence yielded a binding signal of 0.86.

For the sequence ACGTGG, the binding signal with FLI1 stood at 0.566; with EHF, 0.583; with SPIB, 0.639; in the test with ETV5, 0.571; with ELF4, 0.565; in the test with ETV2 it was 0.542. Moreover, the binding signal with ETV3L is 0.598.

The record behind these values is article PMC7862700.
